Test results reported in the supplement of paper PMC7661543.
The effect of the compound repeats well; differences between the knockouts mostly do not.

Assays:
Assay in all cases: relative cell number vs DMSO control (72 h) (% of DMSO); higher = less growth inhibition (more cells)
[1] = test system: ZR-75-1
Procedure: (§1)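 QMAP-Seq: a pool of 5 breast cancer cell lines (ZR-75-1, SKBR3, HCC-38, MDA-MB-231, BT-20), each carrying 12 doxycycline-inducible Cas9 sgRNA perturbations (11 knockouts plus non-targeting sgNT), was treated with compounds for 72 h at four 10-fold doses (10 nM-10 uM or 1 nM-1 uM range). Barcodes were amplified and sequenced, and cell number was interpolated from 293T spike-in standard curves. The result is expressed as % of the median of DMSO wells. Two biological replicates.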

[2] = test system: SKBR3
Procedure: as §1

[3] = test system: MDA-MB-231
Procedure: as §1

C=CC[C@@H]1/C=C(\C)C[C@H](C)C[C@H](OC)[C@H]2O[C@@](O)(C(=O)C(=O)N3CCCC[C@H]3C(=O)O[C@H](/C(C)=C/[C@@H]3CC[C@@H](O)[C@H](OC)C3)[C@H](C)[C@@H](O)CC1=O)[C@H](C)C[C@@H]2OC [Tacrolimus]
relative cell number
Conditions	[1]	[2]	[3]
sgRNA knockout: sgATF3, 10 nM	89	129	110
sgRNA knockout: sgATF3, 100 nM	113	110	137
sgRNA knockout: sgATF3, 1000 nM	101	108	107
sgRNA knockout: sgATF3, 10000 nM	123	125	127
sgRNA knockout: sgATF4, 10 nM	106	96.5	159
sgRNA knockout: sgATF4, 100 nM	99.5	88.7	140
sgRNA knockout: sgATF4, 1000 nM	117	101	152
sgRNA knockout: sgATF4, 10000 nM	174	94.1	154
sgRNA knockout: sgATF6, 10 nM	141	105	130
sgRNA knockout: sgATF6, 100 nM	102	87.6	113
sgRNA knockout: sgATF6, 1000 nM	120	90.5	99
sgRNA knockout: sgATF6, 10000 nM	142	73.3	89.6
sgRNA knockout: sgATG7, 10 nM	85.6	114	109
sgRNA knockout: sgATG7, 100 nM	106	97.4	120
sgRNA knockout: sgATG7, 1000 nM	114	106	110
sgRNA knockout: sgATG7, 10000 nM	97.8	104	104
sgRNA knockout: sgERN1, 10 nM	97	128	94.9
sgRNA knockout: sgERN1, 100 nM	85.8	114	101
sgRNA knockout: sgERN1, 1000 nM	110	101	119
sgRNA knockout: sgERN1, 10000 nM	105	119	120.4
sgRNA knockout: sgHSF1, 10 nM	–	103	116
sgRNA knockout: sgHSF1, 100 nM	–	80.4	118
sgRNA knockout: sgHSF1, 1000 nM	–	90.97	90.8
sgRNA knockout: sgHSF1, 10000 nM	–	79.9	117
sgRNA knockout: sgHSF2, 10 nM	88.1	93.4	109
sgRNA knockout: sgHSF2, 100 nM	93.7	81.1	122
sgRNA knockout: sgHSF2, 1000 nM	121	91.2	88.5
sgRNA knockout: sgHSF2, 10000 nM	103	99.8	106
sgRNA knockout: sgKEAP1, 10 nM	–	83.9	122
sgRNA knockout: sgKEAP1, 100 nM	–	81.9	107
sgRNA knockout: sgKEAP1, 1000 nM	–	81.7	99.7
sgRNA knockout: sgKEAP1, 10000 nM	–	85.7	104
sgRNA knockout: sgNFE2L2, 10 nM	117	121	118
sgRNA knockout: sgNFE2L2, 100 nM	113	94.3	111
sgRNA knockout: sgNFE2L2, 1000 nM	117	110	118
sgRNA knockout: sgNFE2L2, 10000 nM	144	115	116
sgRNA knockout: sgSLC35F2, 10 nM	115	124	109
sgRNA knockout: sgSLC35F2, 100 nM	115	70.7	117
sgRNA knockout: sgSLC35F2, 1000 nM	147	90.2	124
sgRNA knockout: sgSLC35F2, 10000 nM	121	79.9	122.2
sgRNA knockout: sgXBP1, 10 nM	111	139	120
sgRNA knockout: sgXBP1, 100 nM	99.6	109	112
sgRNA knockout: sgXBP1, 1000 nM	110	98.3	122
sgRNA knockout: sgXBP1, 10000 nM	113	133	115

COc1cc([C@@H]2c3cc4c(cc3[C@@H](O[C@@H]3O[C@@H]5CO[C@@H](c6cccs6)O[C@H]5[C@H](O)[C@H]3O)[C@H]3COC(=O)[C@H]23)OCO4)cc(OC)c1O [Teniposide]
relative cell number
Conditions	[1]	[2]	[3]
sgRNA knockout: sgATF3, 10 nM	86.9	91.4	99.2
sgRNA knockout: sgATF3, 100 nM	33.8	37.9	29.6
sgRNA knockout: sgATF3, 1000 nM	48.6	18.1	20.6
sgRNA knockout: sgATF3, 10000 nM	21.6	10.3	10.1
sgRNA knockout: sgATF4, 10 nM	81.3	90.6	79.8
sgRNA knockout: sgATF4, 100 nM	52.6	46.9	33.9
sgRNA knockout: sgATF4, 1000 nM	42.2	21.4	24.3
sgRNA knockout: sgATF4, 10000 nM	32.5	6.64	12.2
sgRNA knockout: sgATF6, 10 nM	101	91.8	89.9
sgRNA knockout: sgATF6, 100 nM	24.1	41.9	25.2
sgRNA knockout: sgATF6, 1000 nM	31.1	18.7	19.9
sgRNA knockout: sgATF6, 10000 nM	33	6.86	15.3
sgRNA knockout: sgATG7, 10 nM	87.6	105	89.3
sgRNA knockout: sgATG7, 100 nM	45.1	47.6	29.4
sgRNA knockout: sgATG7, 1000 nM	35.9	20.5	16.2
sgRNA knockout: sgATG7, 10000 nM	21.9	8.34	7.86
sgRNA knockout: sgERN1, 10 nM	90.1	83.54	83.2
sgRNA knockout: sgERN1, 100 nM	52.4	39.4	39.2
sgRNA knockout: sgERN1, 1000 nM	35.7	21.1	12.4
sgRNA knockout: sgERN1, 10000 nM	30.6	9.68	6.96
sgRNA knockout: sgHSF1, 10 nM	–	86.3	67.9
sgRNA knockout: sgHSF1, 100 nM	–	38.7	27.4
sgRNA knockout: sgHSF1, 1000 nM	–	20.3	19.6
sgRNA knockout: sgHSF1, 10000 nM	–	9.65	10.9
sgRNA knockout: sgHSF2, 10 nM	76.9	80.7	95.1
sgRNA knockout: sgHSF2, 100 nM	35.37	43.2	25.2
sgRNA knockout: sgHSF2, 1000 nM	37.73	25.8	24.4
sgRNA knockout: sgHSF2, 10000 nM	18.8	9.18	9.15
sgRNA knockout: sgKEAP1, 10 nM	–	85.7	93.7
sgRNA knockout: sgKEAP1, 100 nM	–	40.1	32.2
sgRNA knockout: sgKEAP1, 1000 nM	–	15.6	21.8
sgRNA knockout: sgKEAP1, 10000 nM	–	6.36	6.17
sgRNA knockout: sgNFE2L2, 10 nM	61.5	86.9	85.3
sgRNA knockout: sgNFE2L2, 100 nM	35.5	40.6	28.7
sgRNA knockout: sgNFE2L2, 1000 nM	31.5	19.4	21.1
sgRNA knockout: sgNFE2L2, 10000 nM	22.7	9.33	9.44
sgRNA knockout: sgSLC35F2, 10 nM	75.5	81.2	79.6
sgRNA knockout: sgSLC35F2, 100 nM	19.7	39.9	25.6
sgRNA knockout: sgSLC35F2, 1000 nM	38.7	18.9	21
sgRNA knockout: sgSLC35F2, 10000 nM	20.6	11.5	10.7
sgRNA knockout: sgXBP1, 10 nM	64.8	103	65.9
sgRNA knockout: sgXBP1, 100 nM	45.2	39.9	31.7
sgRNA knockout: sgXBP1, 1000 nM	32.1	17.4	19.2
sgRNA knockout: sgXBP1, 10000 nM	22.9	9.52	9.11
